For five molecules, binding results are on record in publication doi:10.1101/2023.12.13.571451 (bioRxiv, 2023).

Amino acid sequences for entries named in this document (tags omitted).
UniProt P31539: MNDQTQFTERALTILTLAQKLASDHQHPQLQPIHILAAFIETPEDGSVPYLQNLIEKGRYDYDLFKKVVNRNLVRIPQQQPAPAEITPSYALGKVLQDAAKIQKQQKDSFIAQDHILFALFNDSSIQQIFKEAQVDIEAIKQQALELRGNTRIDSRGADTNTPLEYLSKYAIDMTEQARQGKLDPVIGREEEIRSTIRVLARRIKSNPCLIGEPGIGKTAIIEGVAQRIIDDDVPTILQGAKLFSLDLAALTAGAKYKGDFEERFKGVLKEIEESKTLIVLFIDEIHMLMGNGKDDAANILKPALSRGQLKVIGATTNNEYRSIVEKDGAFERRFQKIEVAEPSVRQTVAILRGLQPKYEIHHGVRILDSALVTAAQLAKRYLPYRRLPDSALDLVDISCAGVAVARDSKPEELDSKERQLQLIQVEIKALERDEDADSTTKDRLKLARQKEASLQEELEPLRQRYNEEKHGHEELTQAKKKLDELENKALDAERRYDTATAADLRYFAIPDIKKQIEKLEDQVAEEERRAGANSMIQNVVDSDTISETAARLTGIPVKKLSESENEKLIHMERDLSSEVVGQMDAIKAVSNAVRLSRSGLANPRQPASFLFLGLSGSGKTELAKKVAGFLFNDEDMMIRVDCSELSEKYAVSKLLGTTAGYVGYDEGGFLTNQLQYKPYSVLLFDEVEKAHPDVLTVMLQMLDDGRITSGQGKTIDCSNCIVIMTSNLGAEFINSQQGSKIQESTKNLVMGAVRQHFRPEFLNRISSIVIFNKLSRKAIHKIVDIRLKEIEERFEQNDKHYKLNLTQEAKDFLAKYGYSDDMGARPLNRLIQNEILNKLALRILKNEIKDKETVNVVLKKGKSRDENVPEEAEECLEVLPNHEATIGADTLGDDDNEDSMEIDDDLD
UniProt P10591: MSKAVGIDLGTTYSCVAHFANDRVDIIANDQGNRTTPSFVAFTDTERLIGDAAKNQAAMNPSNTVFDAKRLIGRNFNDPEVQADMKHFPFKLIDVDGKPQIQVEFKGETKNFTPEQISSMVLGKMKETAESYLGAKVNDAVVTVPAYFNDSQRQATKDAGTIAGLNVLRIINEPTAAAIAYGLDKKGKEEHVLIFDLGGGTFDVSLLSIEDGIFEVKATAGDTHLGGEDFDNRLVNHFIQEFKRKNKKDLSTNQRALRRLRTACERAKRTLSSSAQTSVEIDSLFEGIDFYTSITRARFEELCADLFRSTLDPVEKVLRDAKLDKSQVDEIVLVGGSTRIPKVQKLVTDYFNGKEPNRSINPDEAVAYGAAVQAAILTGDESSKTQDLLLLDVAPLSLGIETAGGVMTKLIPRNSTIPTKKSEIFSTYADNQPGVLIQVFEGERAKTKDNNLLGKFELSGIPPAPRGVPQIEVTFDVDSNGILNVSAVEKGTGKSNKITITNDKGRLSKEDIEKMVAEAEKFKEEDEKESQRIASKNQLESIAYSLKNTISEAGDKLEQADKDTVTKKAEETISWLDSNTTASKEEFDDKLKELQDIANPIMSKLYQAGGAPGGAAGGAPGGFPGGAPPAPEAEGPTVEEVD

These are yes or no findings as the source states them, for the method shown. Binding seen in cells or lysates may run through a third protein. A yes stands for co-enrichment or nearness to the bait. Other partners may have been found.

This test addresses T1, Tsa1^WT-TAP (S. cerevisiae) (UniProt P34760).
T1 sequence: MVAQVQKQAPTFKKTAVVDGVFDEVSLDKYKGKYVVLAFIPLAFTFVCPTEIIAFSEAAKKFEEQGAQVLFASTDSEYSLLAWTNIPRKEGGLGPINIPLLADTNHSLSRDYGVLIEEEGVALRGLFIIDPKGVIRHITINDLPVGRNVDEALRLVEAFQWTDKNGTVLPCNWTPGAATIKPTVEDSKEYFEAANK
Description: affinity purification with mass spectrometry.

With “Hsp104 (disaggregase, endogenous) (from UniProt P31539 1-908)”, the binding entry is “binds”.
Take “Ssa1 (Hsp70, endogenous) (from UniProt P10591 1-642)”: the binding result was “binds”.

B1: Trx2 (thioredoxin, endogenous) (enzyme, UniProt P22803 1-104)
chain: MVTQLKSASEYDSALASGDKLVVVDFFATWCGPCKMIAPMIEKFAEQYSDAAFYKLDVDEVSDVAQKAEVSSMPTLIFYKGGKEVTRVVGANPAAIKQAIASNV
Turning to B1, the binding entry is given as “binds”.

B2: recombinant Trx1-HIS (enzyme, S. cerevisiae, UniProt P22217 1-103, looked up)
chain: MVTQFKTASEFDSAIAQDKLVVVDFYATWCGPCKMIAPMIEKFSEQYPQADFYKLDVDELGDVAQKNEVSAMPTLLLFKNGKEVAKVVGANPAAIKQAIAANA
On to B2, for which the binding result is listed as “binds”.

B3: Srx1 (sulfiredoxin, endogenous) (enzyme, UniProt P36077 1-127)
chain: MSLQSNSVKPTEIPLSEIRRPLAPVLDPQKIDAMVATMKGIPTASKTCSLEQAEAAASAGELPPVDVLGVRVKGQTLYYAFGGCHRLQAYDRRARETQNAAFPVRCRVLPATPRQIRMYLGSSLDIE
Regarding B3, the binding result is given as “binds”.
